According to the supplement of paper PMC12823440, “Inhibitors supercharge kinase turnover through native proteolytic circuits” (Nature, 2025):
This is one part of the list. The calls rarely recur for the same compound in another form.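 In K562 cells expressing nanoluciferase-fused kinases, luminescence was recorded at 4 h intervals between 2 and 18 h, normalized as percent of control with DMSO at 100% and a positive control at 0%. A significant (2 sigma) signal drop marks a time point as decreased. The authors' rule for a hit is not shown and takes in more than the number of time points.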

Amino acid sequences for entries named in this document (tags omitted). A change or cut given only in a name is not applied to a line headed by its entry.
UniProt Q15208: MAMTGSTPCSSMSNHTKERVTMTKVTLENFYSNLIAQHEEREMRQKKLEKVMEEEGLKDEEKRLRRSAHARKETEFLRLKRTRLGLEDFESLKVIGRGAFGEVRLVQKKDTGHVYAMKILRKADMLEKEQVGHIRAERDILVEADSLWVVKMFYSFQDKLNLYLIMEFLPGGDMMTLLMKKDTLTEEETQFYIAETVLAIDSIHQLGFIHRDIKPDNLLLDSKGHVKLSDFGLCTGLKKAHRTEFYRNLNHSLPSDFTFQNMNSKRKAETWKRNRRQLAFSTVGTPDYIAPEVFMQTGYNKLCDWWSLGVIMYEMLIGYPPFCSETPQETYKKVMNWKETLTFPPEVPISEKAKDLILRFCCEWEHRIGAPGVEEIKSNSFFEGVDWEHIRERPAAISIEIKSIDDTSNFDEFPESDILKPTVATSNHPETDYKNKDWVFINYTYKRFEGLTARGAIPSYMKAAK
UniProt P42680: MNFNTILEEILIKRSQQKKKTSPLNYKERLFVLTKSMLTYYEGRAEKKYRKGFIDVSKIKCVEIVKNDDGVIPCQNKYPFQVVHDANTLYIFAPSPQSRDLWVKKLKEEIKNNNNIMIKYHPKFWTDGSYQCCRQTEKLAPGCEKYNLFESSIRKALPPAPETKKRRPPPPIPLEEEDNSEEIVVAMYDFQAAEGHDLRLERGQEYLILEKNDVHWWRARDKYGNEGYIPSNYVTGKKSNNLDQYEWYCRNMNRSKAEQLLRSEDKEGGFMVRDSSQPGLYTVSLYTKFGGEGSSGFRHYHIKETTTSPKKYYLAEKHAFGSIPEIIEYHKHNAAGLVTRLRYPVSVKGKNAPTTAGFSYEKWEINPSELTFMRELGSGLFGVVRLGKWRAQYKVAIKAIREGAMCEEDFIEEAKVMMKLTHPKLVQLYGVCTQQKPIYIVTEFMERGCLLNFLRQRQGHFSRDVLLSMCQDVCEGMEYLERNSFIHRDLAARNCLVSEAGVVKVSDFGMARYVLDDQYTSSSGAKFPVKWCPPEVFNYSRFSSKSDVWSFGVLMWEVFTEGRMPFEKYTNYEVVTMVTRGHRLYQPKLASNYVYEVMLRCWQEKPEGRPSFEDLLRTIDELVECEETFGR
UniProt P29597: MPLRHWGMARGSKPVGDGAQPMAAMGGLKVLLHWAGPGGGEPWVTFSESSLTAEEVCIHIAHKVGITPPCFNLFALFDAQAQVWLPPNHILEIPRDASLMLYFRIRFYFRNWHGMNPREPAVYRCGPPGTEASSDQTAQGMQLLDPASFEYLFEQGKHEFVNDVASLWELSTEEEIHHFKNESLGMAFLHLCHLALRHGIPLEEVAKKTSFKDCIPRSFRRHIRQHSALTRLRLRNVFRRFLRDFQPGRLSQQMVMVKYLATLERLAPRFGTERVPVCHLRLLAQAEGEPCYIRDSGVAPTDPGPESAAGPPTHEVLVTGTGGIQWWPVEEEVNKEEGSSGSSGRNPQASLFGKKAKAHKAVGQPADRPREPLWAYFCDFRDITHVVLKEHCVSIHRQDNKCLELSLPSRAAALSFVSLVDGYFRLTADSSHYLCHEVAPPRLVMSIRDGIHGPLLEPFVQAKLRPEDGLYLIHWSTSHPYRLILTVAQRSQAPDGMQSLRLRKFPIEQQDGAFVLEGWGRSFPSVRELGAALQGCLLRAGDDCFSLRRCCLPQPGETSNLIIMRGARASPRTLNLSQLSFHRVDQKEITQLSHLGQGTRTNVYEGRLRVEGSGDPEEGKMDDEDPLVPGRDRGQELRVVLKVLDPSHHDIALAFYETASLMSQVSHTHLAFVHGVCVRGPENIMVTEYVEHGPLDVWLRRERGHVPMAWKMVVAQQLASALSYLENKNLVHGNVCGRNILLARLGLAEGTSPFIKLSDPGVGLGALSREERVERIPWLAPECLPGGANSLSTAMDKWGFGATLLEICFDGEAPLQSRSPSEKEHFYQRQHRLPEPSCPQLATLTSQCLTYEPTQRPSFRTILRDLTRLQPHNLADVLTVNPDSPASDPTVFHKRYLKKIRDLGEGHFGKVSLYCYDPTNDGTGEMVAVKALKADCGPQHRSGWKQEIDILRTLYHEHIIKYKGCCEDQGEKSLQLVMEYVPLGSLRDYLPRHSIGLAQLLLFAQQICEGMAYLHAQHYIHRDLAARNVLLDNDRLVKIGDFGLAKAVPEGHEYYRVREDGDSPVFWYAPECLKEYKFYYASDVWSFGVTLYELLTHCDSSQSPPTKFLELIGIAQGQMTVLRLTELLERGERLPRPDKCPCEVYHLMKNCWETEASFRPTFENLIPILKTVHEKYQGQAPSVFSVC
UniProt Q6PHR2: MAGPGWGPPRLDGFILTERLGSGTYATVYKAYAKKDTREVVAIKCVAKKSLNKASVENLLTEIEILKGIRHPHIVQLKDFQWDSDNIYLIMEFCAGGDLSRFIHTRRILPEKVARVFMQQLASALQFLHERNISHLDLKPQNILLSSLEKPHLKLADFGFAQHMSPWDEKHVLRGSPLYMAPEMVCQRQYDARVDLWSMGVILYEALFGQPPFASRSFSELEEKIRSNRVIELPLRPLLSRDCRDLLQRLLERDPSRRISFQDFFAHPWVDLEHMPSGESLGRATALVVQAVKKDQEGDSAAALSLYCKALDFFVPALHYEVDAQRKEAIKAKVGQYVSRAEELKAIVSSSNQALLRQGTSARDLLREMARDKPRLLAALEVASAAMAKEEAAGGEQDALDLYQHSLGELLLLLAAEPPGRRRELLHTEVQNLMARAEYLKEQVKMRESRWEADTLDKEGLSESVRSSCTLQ
UniProt P07947, whole entry, looked up: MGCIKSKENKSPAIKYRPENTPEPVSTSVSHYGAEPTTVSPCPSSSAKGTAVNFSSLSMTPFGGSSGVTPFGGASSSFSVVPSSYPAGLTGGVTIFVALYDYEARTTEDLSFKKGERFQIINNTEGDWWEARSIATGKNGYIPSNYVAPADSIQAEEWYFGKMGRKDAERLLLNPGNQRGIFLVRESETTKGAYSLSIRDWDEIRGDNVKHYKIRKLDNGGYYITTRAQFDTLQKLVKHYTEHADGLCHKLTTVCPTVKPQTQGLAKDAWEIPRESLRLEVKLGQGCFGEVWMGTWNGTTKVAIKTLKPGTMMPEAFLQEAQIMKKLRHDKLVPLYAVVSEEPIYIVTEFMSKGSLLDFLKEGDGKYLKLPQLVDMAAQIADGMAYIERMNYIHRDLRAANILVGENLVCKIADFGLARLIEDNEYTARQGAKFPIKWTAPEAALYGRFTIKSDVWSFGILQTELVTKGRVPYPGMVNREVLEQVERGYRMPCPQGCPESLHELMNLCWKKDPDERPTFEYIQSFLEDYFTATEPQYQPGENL
UniProt P43403: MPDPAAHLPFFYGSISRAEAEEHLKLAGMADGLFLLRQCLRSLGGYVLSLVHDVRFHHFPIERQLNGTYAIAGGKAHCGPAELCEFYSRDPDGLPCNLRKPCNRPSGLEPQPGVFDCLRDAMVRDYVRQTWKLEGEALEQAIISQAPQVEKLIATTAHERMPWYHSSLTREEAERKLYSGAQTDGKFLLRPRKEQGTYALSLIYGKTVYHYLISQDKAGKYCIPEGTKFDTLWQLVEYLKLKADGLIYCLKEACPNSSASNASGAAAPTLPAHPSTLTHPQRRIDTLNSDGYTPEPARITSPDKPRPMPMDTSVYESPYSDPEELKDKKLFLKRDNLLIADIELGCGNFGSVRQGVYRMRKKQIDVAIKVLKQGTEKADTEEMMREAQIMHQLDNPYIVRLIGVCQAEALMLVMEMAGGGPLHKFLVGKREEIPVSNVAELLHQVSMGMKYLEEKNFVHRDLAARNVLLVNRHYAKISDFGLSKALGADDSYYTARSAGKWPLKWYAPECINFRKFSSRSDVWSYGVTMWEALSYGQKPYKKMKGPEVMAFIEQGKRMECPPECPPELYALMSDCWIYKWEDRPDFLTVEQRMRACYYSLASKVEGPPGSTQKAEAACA
UniProt P00519, whole entry: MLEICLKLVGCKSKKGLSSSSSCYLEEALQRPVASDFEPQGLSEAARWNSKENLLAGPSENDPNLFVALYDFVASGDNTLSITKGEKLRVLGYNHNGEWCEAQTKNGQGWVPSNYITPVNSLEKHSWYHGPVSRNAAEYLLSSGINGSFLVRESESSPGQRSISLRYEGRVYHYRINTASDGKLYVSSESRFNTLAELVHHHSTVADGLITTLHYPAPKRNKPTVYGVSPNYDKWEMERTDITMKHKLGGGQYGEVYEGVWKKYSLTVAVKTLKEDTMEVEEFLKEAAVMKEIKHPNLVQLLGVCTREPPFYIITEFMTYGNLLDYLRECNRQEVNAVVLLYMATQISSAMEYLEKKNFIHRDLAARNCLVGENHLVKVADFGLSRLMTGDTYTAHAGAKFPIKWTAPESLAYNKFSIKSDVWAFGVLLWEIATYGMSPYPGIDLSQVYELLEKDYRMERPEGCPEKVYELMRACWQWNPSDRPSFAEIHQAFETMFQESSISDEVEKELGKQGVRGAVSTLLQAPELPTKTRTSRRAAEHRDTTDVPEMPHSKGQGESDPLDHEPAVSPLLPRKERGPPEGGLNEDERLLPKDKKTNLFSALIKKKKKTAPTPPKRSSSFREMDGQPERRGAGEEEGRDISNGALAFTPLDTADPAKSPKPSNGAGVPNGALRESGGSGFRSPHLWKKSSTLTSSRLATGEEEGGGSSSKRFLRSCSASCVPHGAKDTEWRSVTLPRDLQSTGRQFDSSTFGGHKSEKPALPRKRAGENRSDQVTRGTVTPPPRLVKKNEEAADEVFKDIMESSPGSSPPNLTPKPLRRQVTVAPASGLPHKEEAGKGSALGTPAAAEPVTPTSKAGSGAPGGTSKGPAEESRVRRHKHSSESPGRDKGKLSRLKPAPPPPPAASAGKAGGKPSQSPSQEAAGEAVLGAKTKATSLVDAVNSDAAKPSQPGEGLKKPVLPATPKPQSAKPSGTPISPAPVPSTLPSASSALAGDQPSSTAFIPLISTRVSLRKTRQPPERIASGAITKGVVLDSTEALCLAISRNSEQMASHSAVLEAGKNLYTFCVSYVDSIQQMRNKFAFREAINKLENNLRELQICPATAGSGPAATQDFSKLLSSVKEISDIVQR
UniProt P31749: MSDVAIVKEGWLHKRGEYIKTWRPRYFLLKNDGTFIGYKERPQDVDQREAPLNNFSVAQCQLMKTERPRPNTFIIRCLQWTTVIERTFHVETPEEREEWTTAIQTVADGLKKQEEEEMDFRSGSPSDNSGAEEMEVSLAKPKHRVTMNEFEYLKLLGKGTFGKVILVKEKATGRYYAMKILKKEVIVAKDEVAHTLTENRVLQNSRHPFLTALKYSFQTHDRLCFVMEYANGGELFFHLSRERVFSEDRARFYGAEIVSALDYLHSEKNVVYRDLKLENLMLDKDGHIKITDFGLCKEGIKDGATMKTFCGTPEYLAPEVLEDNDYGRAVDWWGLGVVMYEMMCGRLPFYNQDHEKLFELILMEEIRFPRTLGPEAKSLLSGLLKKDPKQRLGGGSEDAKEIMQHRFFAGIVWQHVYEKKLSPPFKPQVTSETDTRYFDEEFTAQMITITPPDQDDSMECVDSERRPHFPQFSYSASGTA

How the values were obtained:
Conditions in all cases: K562; 2-18 h
STK38 = STK38 (UniProt Q15208); test: kinase-Nluc reporter destabilization hit call (1 = scored as downregulated) (binary); higher = compound decreases kinase abundance
SYK = SYK (UniProt P43405); test: as above
TEC = TEC (UniProt P42680); test: as above
TYK2 = TYK2 (UniProt P29597); test: as above
ULK3 = ULK3 (UniProt Q6PHR2); test: as above
YES1 = YES1 (UniProt P07947); test: as above
ZAK = ZAK (UniProt Q9NYL2); test: as above
ZAP70 = ZAP70 (UniProt P43403); test: as above
ABL1 = ABL1 (UniProt P00519); test: number of time points (of 5) at which kinase-Nluc abundance scored as decreased, DMSO-normalised (count); higher = more persistent destabilization
AKT1 = AKT1 (UniProt P31749); test: as above

CCc1ccc(C(=O)COc2ccc(CC3SC(=O)NC3=O)cc2)nc1 (stereo not given) (10 µM)
inactive: kinase-Nluc reporter destabilization hit call (STK38) 0 | kinase-Nluc reporter destabilization hit call (SYK) 0 | kinase-Nluc reporter destabilization hit call (TEC) 0 | kinase-Nluc reporter destabilization hit call (TYK2) 0 | kinase-Nluc reporter destabilization hit call (ULK3) 0 | kinase-Nluc reporter destabilization hit call (YES1) 0 | kinase-Nluc reporter destabilization hit call (ZAK) 0 | kinase-Nluc reporter destabilization hit call (ZAP70) 0
0: number of time points (ABL1) | number of time points (AKT1)

O=C1NCCCc2c1oc1ccc(O)cc21 (10 µM)
inactive: kinase-Nluc reporter destabilization hit call (STK38) 0 | kinase-Nluc reporter destabilization hit call (SYK) 0 | kinase-Nluc reporter destabilization hit call (TEC) 0 | kinase-Nluc reporter destabilization hit call (TYK2) 0 | kinase-Nluc reporter destabilization hit call (ULK3) 0 | kinase-Nluc reporter destabilization hit call (YES1) 0 | kinase-Nluc reporter destabilization hit call (ZAK) 0 | kinase-Nluc reporter destabilization hit call (ZAP70) 0
0: number of time points (ABL1) | number of time points (AKT1)

CC(=O)Nc1nc2ccc(-c3cnc(C)c(NC(=O)OC4CCCCC4)c3)cc2s1 (10 µM)
0: number of time points (ABL1) | number of time points (AKT1)
inactive: kinase-Nluc reporter destabilization hit call (STK38) 0 | kinase-Nluc reporter destabilization hit call (SYK) 0 | kinase-Nluc reporter destabilization hit call (TEC) 0 | kinase-Nluc reporter destabilization hit call (TYK2) 0 | kinase-Nluc reporter destabilization hit call (ULK3) 0 | kinase-Nluc reporter destabilization hit call (YES1) 0 | kinase-Nluc reporter destabilization hit call (ZAK) 0 | kinase-Nluc reporter destabilization hit call (ZAP70) 0

CCOc1nc(Nc2ccc(C(=O)N3CCOCC3)cc2OC)nc2[nH]ccc12 [LRRK2 inhibitor 1] (2.5 µM)
0: number of time points (ABL1) | number of time points (AKT1)
inactive: kinase-Nluc reporter destabilization hit call (STK38) 0 | kinase-Nluc reporter destabilization hit call (SYK) 0 | kinase-Nluc reporter destabilization hit call (TEC) 0 | kinase-Nluc reporter destabilization hit call (TYK2) 0 | kinase-Nluc reporter destabilization hit call (ULK3) 0 | kinase-Nluc reporter destabilization hit call (YES1) 0 | kinase-Nluc reporter destabilization hit call (ZAK) 0 | kinase-Nluc reporter destabilization hit call (ZAP70) 0

C=CC(=O)Nc1cccc(Oc2nc(Nc3ccc(N4CCN(C)CC4)cc3)nc3ccoc23)c1 [Poseltinib] (10 µM)
0: number of time points (ABL1) | number of time points (AKT1)
inactive: kinase-Nluc reporter destabilization hit call (STK38) 0 | kinase-Nluc reporter destabilization hit call (SYK) 0 | kinase-Nluc reporter destabilization hit call (TEC) 0 | kinase-Nluc reporter destabilization hit call (TYK2) 0 | kinase-Nluc reporter destabilization hit call (ULK3) 0 | kinase-Nluc reporter destabilization hit call (YES1) 0 | kinase-Nluc reporter destabilization hit call (ZAK) 0 | kinase-Nluc reporter destabilization hit call (ZAP70) 0

O=S(=O)(c1cccc2cnccc12)N1CCNCC1 (10 µM)
0: number of time points (ABL1) | number of time points (AKT1)
inactive: kinase-Nluc reporter destabilization hit call (STK38) 0 | kinase-Nluc reporter destabilization hit call (SYK) 0 | kinase-Nluc reporter destabilization hit call (TEC) 0 | kinase-Nluc reporter destabilization hit call (TYK2) 0 | kinase-Nluc reporter destabilization hit call (ULK3) 0 | kinase-Nluc reporter destabilization hit call (YES1) 0 | kinase-Nluc reporter destabilization hit call (ZAK) 0 | kinase-Nluc reporter destabilization hit call (ZAP70) 0

C=CS(=O)(=O)c1ccc(Nc2nc(OCC3CCCCC3)c3[nH]cnc3n2)cc1 (2.5 µM)
0: number of time points (ABL1) | number of time points (AKT1)
inactive: kinase-Nluc reporter destabilization hit call (STK38) 0 | kinase-Nluc reporter destabilization hit call (SYK) 0 | kinase-Nluc reporter destabilization hit call (TEC) 0 | kinase-Nluc reporter destabilization hit call (TYK2) 0 | kinase-Nluc reporter destabilization hit call (ULK3) 0 | kinase-Nluc reporter destabilization hit call (YES1) 0 | kinase-Nluc reporter destabilization hit call (ZAK) 0 | kinase-Nluc reporter destabilization hit call (ZAP70) 0

CC[C@H](Nc1ncnc2[nH]cnc12)c1oc2ccccc2c(=O)c1-c1cccc(F)c1 [Tenalisib] (10 µM)
0: number of time points (ABL1) | number of time points (AKT1)
inactive: kinase-Nluc reporter destabilization hit call (STK38) 0 | kinase-Nluc reporter destabilization hit call (SYK) 0 | kinase-Nluc reporter destabilization hit call (TEC) 0 | kinase-Nluc reporter destabilization hit call (TYK2) 0 | kinase-Nluc reporter destabilization hit call (ULK3) 0 | kinase-Nluc reporter destabilization hit call (YES1) 0 | kinase-Nluc reporter destabilization hit call (ZAK) 0 | kinase-Nluc reporter destabilization hit call (ZAP70) 0

CCC(C)(C)C(=O)N(O)Cc1ccccc1 (10 µM)
inactive: kinase-Nluc reporter destabilization hit call (STK38) 0 | kinase-Nluc reporter destabilization hit call (SYK) 0 | kinase-Nluc reporter destabilization hit call (TEC) 0 | kinase-Nluc reporter destabilization hit call (TYK2) 0 | kinase-Nluc reporter destabilization hit call (ULK3) 0 | kinase-Nluc reporter destabilization hit call (YES1) 0 | kinase-Nluc reporter destabilization hit call (ZAK) 0 | kinase-Nluc reporter destabilization hit call (ZAP70) 0
0: number of time points (ABL1) | number of time points (AKT1)

Random excerpt: 2 entries already listed.
CC[C@H](Nc1ncnc2[nH]cnc12)c1oc2ccccc2c(=O)c1-c1cccc(F)c1 [Tenalisib] (10 µM)
0: number of time points (ABL1) | number of time points (AKT1)
inactive: kinase-Nluc reporter destabilization hit call (STK38) 0 | kinase-Nluc reporter destabilization hit call (SYK) 0 | kinase-Nluc reporter destabilization hit call (TEC) 0 | kinase-Nluc reporter destabilization hit call (TYK2) 0 | kinase-Nluc reporter destabilization hit call (ULK3) 0 | kinase-Nluc reporter destabilization hit call (YES1) 0 | kinase-Nluc reporter destabilization hit call (ZAK) 0 | kinase-Nluc reporter destabilization hit call (ZAP70) 0

O=C1NCCCc2c1oc1ccc(O)cc21 (10 µM)
inactive: kinase-Nluc reporter destabilization hit call (STK38) 0 | kinase-Nluc reporter destabilization hit call (SYK) 0 | kinase-Nluc reporter destabilization hit call (TEC) 0 | kinase-Nluc reporter destabilization hit call (TYK2) 0 | kinase-Nluc reporter destabilization hit call (ULK3) 0 | kinase-Nluc reporter destabilization hit call (YES1) 0 | kinase-Nluc reporter destabilization hit call (ZAK) 0 | kinase-Nluc reporter destabilization hit call (ZAP70) 0
0: number of time points (ABL1) | number of time points (AKT1)

Next part.

O=C1NC(=O)/C(=C/c2ccc(-c3ccc(F)cc3O)o2)S1 (10 µM)
0: number of time points (ABL1) | number of time points (AKT1)
inactive: kinase-Nluc reporter destabilization hit call (STK38) 0 | kinase-Nluc reporter destabilization hit call (SYK) 0 | kinase-Nluc reporter destabilization hit call (TEC) 0 | kinase-Nluc reporter destabilization hit call (TYK2) 0 | kinase-Nluc reporter destabilization hit call (ULK3) 0 | kinase-Nluc reporter destabilization hit call (YES1) 0 | kinase-Nluc reporter destabilization hit call (ZAK) 0 | kinase-Nluc reporter destabilization hit call (ZAP70) 0

CN(CC(=O)N(Cc1ccc(C2CCCCC2)cc1)c1ccc(C(=O)O)c(O)c1)S(=O)(=O)c1c(F)c(F)c(F)c(F)c1F (2.5 µM)
inactive: kinase-Nluc reporter destabilization hit call (STK38) 0 | kinase-Nluc reporter destabilization hit call (SYK) 0 | kinase-Nluc reporter destabilization hit call (TEC) 0 | kinase-Nluc reporter destabilization hit call (TYK2) 0 | kinase-Nluc reporter destabilization hit call (ULK3) 0 | kinase-Nluc reporter destabilization hit call (YES1) 0 | kinase-Nluc reporter destabilization hit call (ZAK) 0 | kinase-Nluc reporter destabilization hit call (ZAP70) 0
0: number of time points (ABL1) | number of time points (AKT1)

O=C1NC(=O)C(c2cnc3ccccn23)=C1c1cn2c3c(cc(F)cc13)CN(C(=O)N1CCCCC1)CC2 (2.5 µM)
inactive: kinase-Nluc reporter destabilization hit call (STK38) 0 | kinase-Nluc reporter destabilization hit call (SYK) 0 | kinase-Nluc reporter destabilization hit call (TEC) 0 | kinase-Nluc reporter destabilization hit call (TYK2) 0 | kinase-Nluc reporter destabilization hit call (ULK3) 0 | kinase-Nluc reporter destabilization hit call (YES1) 0 | kinase-Nluc reporter destabilization hit call (ZAK) 0 | kinase-Nluc reporter destabilization hit call (ZAP70) 0
0: number of time points (ABL1) | number of time points (AKT1)

CCCC(=O)Nc1nc2c(ncn2[C@@H]2O[C@@H]3COP(=O)(O)O[C@H]3[C@H]2OC(=O)CCC)c(=O)[nH]1 [Dibutyryl-cGMP (sodium)] (10 µM)
0: number of time points (ABL1) | number of time points (AKT1)
inactive: kinase-Nluc reporter destabilization hit call (STK38) 0 | kinase-Nluc reporter destabilization hit call (SYK) 0 | kinase-Nluc reporter destabilization hit call (TEC) 0 | kinase-Nluc reporter destabilization hit call (TYK2) 0 | kinase-Nluc reporter destabilization hit call (ULK3) 0 | kinase-Nluc reporter destabilization hit call (YES1) 0 | kinase-Nluc reporter destabilization hit call (ZAK) 0 | kinase-Nluc reporter destabilization hit call (ZAP70) 0

COc1cc(N2CCC(O)CC2)ccc1Nc1cc(Nc2ccccc2S(=O)(=O)C(C)C)c2cc[nH]c2n1 (10 µM)
inactive: kinase-Nluc reporter destabilization hit call (STK38) 0 | kinase-Nluc reporter destabilization hit call (SYK) 0 | kinase-Nluc reporter destabilization hit call (TEC) 0 | kinase-Nluc reporter destabilization hit call (TYK2) 0 | kinase-Nluc reporter destabilization hit call (ULK3) 0 | kinase-Nluc reporter destabilization hit call (YES1) 0 | kinase-Nluc reporter destabilization hit call (ZAK) 0 | kinase-Nluc reporter destabilization hit call (ZAP70) 0
0: number of time points (ABL1) | number of time points (AKT1)
